Source: the supplement of paper PMC10849652
This is one part of the list.

Chains of the proteins cited; added tags and fusions are not shown. Lines headed by an entry give the natural chain unless they say otherwise; changes in a name come on top.
UniProt Q9BU89: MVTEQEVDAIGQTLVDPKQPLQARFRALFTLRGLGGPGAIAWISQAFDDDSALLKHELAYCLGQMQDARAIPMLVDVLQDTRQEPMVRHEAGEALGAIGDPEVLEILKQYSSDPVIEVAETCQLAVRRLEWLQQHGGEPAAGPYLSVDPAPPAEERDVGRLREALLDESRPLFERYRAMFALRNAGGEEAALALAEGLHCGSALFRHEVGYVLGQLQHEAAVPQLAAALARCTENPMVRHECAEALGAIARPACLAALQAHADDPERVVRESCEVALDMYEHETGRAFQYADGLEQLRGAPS
UniProt O76075: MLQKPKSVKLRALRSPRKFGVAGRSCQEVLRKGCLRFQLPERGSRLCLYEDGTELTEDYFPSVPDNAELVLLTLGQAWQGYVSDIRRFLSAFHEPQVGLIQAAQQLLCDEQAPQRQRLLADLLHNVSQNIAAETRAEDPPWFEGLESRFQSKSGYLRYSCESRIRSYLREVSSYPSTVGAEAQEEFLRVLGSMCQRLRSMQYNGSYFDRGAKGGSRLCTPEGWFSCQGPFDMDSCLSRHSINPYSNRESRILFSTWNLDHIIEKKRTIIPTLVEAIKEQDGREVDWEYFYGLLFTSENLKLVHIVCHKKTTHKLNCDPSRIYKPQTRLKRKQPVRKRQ
UniProt Q9BVM2: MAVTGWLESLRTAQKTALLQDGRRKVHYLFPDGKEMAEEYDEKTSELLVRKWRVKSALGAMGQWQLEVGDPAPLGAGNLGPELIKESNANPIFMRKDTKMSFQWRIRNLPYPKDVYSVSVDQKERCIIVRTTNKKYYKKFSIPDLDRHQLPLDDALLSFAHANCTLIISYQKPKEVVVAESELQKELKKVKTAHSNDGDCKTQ
UniProt Q99615: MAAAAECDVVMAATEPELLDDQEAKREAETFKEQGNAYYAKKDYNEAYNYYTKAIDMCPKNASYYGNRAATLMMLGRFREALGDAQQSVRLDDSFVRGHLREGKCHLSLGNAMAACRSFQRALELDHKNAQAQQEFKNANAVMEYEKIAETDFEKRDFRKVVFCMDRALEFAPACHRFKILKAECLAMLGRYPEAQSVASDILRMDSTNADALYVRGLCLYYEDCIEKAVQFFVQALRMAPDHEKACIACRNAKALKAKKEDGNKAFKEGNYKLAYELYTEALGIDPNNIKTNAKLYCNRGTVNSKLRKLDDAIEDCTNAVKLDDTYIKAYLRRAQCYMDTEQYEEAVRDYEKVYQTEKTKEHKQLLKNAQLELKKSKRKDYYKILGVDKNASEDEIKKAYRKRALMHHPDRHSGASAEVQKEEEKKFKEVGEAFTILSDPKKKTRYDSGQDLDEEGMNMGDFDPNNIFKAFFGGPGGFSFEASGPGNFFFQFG
UniProt Q8IXB1: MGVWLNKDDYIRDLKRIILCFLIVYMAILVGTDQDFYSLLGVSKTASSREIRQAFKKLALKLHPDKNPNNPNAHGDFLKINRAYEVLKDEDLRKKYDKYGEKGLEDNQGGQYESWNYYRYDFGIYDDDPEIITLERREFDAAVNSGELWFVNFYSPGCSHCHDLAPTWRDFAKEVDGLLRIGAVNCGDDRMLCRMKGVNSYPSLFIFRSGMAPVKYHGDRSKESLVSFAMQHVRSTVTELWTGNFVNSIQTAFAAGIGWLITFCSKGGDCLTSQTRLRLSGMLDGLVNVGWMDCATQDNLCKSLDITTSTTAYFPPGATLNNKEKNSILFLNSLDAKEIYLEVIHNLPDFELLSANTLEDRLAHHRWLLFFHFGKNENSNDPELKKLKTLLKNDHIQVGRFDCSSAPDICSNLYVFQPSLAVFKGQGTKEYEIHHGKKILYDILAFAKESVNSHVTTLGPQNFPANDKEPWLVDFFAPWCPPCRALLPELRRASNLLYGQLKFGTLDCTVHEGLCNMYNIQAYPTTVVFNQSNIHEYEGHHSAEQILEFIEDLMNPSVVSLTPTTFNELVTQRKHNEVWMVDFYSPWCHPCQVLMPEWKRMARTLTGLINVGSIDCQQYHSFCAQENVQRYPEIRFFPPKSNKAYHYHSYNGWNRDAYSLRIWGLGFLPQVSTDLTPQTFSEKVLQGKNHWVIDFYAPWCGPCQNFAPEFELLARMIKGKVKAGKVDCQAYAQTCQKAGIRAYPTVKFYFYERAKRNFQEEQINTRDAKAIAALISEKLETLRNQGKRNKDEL
UniProt Q96N67: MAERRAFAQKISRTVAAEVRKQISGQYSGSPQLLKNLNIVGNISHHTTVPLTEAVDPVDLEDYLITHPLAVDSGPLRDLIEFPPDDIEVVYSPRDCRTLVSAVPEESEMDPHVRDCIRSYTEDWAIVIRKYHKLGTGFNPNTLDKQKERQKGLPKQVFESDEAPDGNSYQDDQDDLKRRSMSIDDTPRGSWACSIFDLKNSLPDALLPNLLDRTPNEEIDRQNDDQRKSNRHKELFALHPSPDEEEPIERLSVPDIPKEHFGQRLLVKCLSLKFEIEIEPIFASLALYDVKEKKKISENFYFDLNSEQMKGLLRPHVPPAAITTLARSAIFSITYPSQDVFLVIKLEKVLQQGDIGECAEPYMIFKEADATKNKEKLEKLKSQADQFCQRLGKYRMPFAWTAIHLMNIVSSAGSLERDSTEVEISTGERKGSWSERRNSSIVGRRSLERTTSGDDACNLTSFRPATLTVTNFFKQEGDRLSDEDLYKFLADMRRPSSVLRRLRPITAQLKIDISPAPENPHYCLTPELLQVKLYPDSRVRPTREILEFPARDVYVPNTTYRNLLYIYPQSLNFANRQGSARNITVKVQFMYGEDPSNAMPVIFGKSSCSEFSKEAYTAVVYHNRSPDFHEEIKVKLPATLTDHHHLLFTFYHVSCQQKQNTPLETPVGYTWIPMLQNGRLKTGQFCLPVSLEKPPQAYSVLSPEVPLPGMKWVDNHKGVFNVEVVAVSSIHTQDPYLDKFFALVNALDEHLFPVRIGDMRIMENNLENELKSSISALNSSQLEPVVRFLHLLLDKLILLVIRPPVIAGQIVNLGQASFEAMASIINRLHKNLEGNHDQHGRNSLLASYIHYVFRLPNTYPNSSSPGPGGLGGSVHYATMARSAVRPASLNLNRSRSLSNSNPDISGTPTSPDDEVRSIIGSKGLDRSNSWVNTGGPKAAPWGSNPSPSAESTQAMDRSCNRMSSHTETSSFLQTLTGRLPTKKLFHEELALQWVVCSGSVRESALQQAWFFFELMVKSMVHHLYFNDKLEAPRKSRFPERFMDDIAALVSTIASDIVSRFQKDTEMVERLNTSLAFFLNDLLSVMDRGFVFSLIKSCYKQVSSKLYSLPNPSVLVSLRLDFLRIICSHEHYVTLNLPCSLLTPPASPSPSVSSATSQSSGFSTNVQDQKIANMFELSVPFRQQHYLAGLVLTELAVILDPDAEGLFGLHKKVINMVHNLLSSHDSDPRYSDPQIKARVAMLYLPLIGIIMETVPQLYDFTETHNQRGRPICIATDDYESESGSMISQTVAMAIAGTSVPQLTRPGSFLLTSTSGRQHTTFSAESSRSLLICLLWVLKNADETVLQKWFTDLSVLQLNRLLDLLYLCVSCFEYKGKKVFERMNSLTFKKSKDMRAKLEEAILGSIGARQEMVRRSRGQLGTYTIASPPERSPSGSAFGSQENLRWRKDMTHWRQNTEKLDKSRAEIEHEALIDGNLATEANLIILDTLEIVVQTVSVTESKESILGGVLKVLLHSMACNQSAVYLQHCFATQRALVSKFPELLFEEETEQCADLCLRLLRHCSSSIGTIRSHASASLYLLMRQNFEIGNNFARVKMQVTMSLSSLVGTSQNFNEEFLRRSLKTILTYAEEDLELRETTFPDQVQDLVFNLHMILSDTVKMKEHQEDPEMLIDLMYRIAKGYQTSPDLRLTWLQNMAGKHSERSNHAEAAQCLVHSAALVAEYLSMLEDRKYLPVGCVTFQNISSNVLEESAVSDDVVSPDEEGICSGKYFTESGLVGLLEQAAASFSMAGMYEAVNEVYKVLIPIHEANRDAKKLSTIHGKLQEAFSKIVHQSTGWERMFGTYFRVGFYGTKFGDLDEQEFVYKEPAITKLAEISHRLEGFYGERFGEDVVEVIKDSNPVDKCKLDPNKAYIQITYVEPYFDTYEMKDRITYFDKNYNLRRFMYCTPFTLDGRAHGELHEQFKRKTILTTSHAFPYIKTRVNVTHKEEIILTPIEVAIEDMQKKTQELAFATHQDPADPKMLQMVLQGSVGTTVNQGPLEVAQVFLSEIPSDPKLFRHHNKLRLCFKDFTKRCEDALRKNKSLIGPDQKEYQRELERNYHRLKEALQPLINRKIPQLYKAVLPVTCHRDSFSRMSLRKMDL
UniProt Q68CQ4: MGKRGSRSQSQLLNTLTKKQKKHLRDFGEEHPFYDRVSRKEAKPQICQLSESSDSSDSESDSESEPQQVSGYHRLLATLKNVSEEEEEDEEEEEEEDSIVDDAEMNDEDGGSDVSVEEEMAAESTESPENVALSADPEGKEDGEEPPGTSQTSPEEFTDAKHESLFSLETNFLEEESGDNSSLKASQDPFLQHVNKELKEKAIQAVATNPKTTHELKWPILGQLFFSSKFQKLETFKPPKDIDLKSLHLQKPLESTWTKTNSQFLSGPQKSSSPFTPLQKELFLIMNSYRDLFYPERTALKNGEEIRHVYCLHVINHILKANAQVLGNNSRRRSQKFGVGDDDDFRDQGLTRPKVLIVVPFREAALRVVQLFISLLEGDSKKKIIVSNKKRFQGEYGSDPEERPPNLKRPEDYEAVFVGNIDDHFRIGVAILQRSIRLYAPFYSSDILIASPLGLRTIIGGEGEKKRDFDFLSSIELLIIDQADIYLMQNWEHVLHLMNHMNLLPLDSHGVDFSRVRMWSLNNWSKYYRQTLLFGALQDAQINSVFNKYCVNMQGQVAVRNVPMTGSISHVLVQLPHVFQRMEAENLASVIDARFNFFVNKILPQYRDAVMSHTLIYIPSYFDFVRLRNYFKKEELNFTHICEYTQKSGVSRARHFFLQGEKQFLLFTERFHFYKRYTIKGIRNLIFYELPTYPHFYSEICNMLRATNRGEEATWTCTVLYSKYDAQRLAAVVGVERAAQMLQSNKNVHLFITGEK
UniProt Q96EY1: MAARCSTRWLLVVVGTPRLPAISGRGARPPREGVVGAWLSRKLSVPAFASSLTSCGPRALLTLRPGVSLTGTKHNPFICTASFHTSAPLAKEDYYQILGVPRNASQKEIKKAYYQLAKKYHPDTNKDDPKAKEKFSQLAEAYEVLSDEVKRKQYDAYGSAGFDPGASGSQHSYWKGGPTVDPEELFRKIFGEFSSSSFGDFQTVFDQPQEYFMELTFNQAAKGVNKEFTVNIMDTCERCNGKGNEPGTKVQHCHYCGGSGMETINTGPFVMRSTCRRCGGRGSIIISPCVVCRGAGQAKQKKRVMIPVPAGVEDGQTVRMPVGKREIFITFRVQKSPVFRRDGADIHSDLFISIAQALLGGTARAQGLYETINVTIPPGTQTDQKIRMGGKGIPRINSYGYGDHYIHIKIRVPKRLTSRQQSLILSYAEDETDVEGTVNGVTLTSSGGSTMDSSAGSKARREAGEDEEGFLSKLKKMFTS
UniProt Q86SQ9: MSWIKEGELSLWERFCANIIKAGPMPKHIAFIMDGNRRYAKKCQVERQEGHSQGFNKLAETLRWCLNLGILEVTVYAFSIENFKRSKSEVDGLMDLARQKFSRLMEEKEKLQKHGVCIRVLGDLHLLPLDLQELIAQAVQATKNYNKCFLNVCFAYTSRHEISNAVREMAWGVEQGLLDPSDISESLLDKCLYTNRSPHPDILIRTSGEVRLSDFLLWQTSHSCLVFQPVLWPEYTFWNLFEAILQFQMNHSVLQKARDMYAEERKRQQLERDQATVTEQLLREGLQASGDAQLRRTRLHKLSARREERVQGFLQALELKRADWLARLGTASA
UniProt O00429, whole entry, looked up: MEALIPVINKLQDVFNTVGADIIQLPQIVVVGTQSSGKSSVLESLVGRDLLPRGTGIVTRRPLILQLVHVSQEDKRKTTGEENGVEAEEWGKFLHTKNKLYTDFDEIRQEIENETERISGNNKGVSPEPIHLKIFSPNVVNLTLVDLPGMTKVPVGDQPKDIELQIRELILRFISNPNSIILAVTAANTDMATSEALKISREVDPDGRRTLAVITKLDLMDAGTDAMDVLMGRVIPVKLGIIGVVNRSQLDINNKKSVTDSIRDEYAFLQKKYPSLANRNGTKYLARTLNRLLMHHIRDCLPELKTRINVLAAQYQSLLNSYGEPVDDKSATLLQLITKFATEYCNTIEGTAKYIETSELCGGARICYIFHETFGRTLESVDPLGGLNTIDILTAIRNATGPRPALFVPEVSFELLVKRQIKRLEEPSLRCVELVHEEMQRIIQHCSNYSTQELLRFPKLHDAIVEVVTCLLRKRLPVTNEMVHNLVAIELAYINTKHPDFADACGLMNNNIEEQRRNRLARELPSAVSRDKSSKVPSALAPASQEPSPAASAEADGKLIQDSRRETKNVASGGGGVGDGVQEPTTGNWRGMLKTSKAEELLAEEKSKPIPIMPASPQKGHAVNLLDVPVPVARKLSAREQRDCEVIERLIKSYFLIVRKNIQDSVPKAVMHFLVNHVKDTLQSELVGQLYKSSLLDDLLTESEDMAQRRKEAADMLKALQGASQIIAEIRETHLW

Legend:
Experiment in all cases: log2 fold change, soluble protein after heating vs DMSO (PISA); higher = thermal stabilisation; K562 lysate, 10 uM; active = over 0.2 and 3.5 SD of the protein, either way, in both replicates (recomputed)
vemurafenib = compound: CCCS(=O)(=O)Nc1ccc(F)c(C(=O)c2c[nH]c3ncc(-c4ccc(Cl)cc4)cc23)c1F [vemurafenib]
Method in brief: (§1)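 Pellets of K562 cells were dounce-homogenised in PBS pH 7.4 with 1 mM MgCl2, and the crude extract was held at 1 mg/mL protein for a 30 min treatment with 10 μM compound. Aliquots were heated for 3 min over 48°C-58°C and pooled before NP-40 was added to 0.5% at 4°C. The supernatant from 21,000xg for 90 min was quantified by TMTpro 16plex LC-MS/MS with channel sums equalised. Values are reported from duplicates as log-two fold change in thermal stability relative to solvent controls.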

[1] = compound: CCCS(=O)(=O)Nc1ccc(F)c(C(=O)c2c[nH]c3ncc(Cl)cc23)c1F
Method in brief: as §1

barasertib = compound: CCN(CCCOc1ccc2c(Nc3cc(CC(=O)Nc4cccc(F)c4)[nH]n3)ncnc2c1)CCOP(=O)(O)O [barasertib]
Method in brief: as §1

[2] = compound: CC[C@@H]1C(=O)N(C)c2cnc(Nc3ccc(C(=O)NC4CCN(C)CC4)cc3OC)nc2N1C1CCCC1
Method in brief: as §1

volasertib = compound: CC[C@@H]1C(=O)N(C)c2cnc(Nc3ccc(C(=O)N[C@H]4CC[C@H](N5CCN(CC6CC6)CC5)CC4)cc3OC)nc2N1C(C)C [volasertib]
Method in brief: as §1

[3] = compound: CCn1c(C(=O)N(C2CC2)C2CC2)cc2c3c(ncn3C)c(Nc3cc(C)n(C)n3)nc21
Method in brief: as §1

[4] = compound: CCn1cc(-c2ccnc3[nH]c(-c4cccc(CN(C)C)c4)cc23)c(-c2ccc(NC(=O)N(C)C)cc2)n1
Method in brief: as §1

[5] = compound: CN1CCC(CNc2ccc3ncc(-c4cccc(OC(F)(F)F)c4)n3n2)CC1
Method in brief: as §1

saracatinib = compound: CN1CCN(CCOc2cc(OC3CCOCC3)c3c(Nc4c(Cl)ccc5c4OCO5)ncnc3c2)CC1 [saracatinib]
Method in brief: as §1

sotrastaurin = compound: CN1CCN(c2nc(C3=C(c4c[nH]c5ccccc45)C(=O)NC3=O)c3ccccc3n2)CC1 [sotrastaurin]
Method in brief: as §1

Measured: log2 fold change

DOHH (UniProt Q9BU89)
inactive: vemurafenib -0.019 | [1] 0.016 | barasertib 0.088 | [2] 0.033 | volasertib 0.058 | [3] -0.034 | [4] -0.081 | [5] -0.087 | saracatinib -0.027 | sotrastaurin -0.053

DNAH8 (UniProt Q96JB1)
inactive: vemurafenib 0.121 | [1] 0.04 | barasertib 0.048 | [2] 0.16 | volasertib 0.094 | [3] -0.221 | [4] -0.206 | [5] 0.036 | saracatinib -0.005 | sotrastaurin -0.04

DFFB (UniProt O76075)
inactive: vemurafenib 0.022 | [1] 0.044 | barasertib -0.064 | [2] 0.037 | volasertib -0.012 | [3] 0.1 | [4] -0.024 | [5] 0.061 | saracatinib 0.042 | sotrastaurin 0.06

DPCD (UniProt Q9BVM2)
inactive: vemurafenib -0.053 | [1] 0.038 | barasertib 0.019 | [2] 0.041 | volasertib -0.002 | [3] -0.035 | [4] -0.075 | [5] 0.001 | saracatinib 0.021 | sotrastaurin 0.023

DNAJC7 (UniProt Q99615)
inactive: vemurafenib -0.024 | [1] 0 | barasertib 0.014 | [2] -0.018 | volasertib -0.065 | [3] 0.066 | [4] -0.019 | [5] -0.091 | saracatinib -0.014 | sotrastaurin 0.006

DNAJC10 (UniProt Q8IXB1)
inactive: vemurafenib -0.012 | [1] 0.041 | barasertib 0.012 | [2] 0.002 | volasertib -0.036 | [3] 0.01 | [4] -0.034 | [5] 0.051 | saracatinib -0.004 | sotrastaurin 0

DHX40 (UniProt Q8IX18)
inactive: vemurafenib -0.009 | [1] 0.061 | barasertib 0.052 | [2] -0.052 | volasertib 0.048 | [3] 0.013 | [4] -0.083 | [5] 0.011 | saracatinib -0.016 | sotrastaurin 0.041

DOCK7 (UniProt Q96N67)
inactive: vemurafenib 0.045 | [1] 0.021 | barasertib 0.027 | [2] -0.057 | volasertib -0.01 | [3] 0 | [4] -0.068 | [5] -0.041 | saracatinib -0.028 | sotrastaurin 0.02

DIDO1 (UniProt Q9BTC0)
inactive: vemurafenib 0.028 | [1] 0.017 | barasertib -0.035 | [2] -0.015 | volasertib 0.006 | [3] -0.02 | [4] 0.019 | [5] 0.001 | saracatinib 0.012 | sotrastaurin 0.026

DICER1 (UniProt Q9UPY3)
inactive: vemurafenib -0.002 | [1] 0.05 | barasertib 0.01 | [2] 0.003 | volasertib -0.068 | [3] 0.021 | [4] 0.275 | [5] 0.036 | saracatinib 0.005 | sotrastaurin -0.018

DHX35 (UniProt Q9H5Z1)
inactive: vemurafenib -0.085 | [1] 0.046 | barasertib -0.069 | [2] -0.061 | volasertib -0.041 | [3] -0.057 | [4] -0.141 | [5] 0.104 | saracatinib 0.02 | sotrastaurin -0.057

DNAJC11 (UniProt Q9NVH1)
inactive: vemurafenib 0.004 | [1] 0.005 | barasertib 0.046 | [2] -0.023 | volasertib 0.01 | [3] 0.013 | [4] -0.015 | [5] -0.041 | saracatinib 0.028 | sotrastaurin -0.009

DNASE2 (UniProt O00115)
inactive: vemurafenib -0.003 | [1] 0.026 | barasertib 0.005 | [2] 0.001 | volasertib 0.029 | [3] 0.021 | [4] -0.022 | [5] 0.045 | saracatinib 0.004 | sotrastaurin -0.052

DHX8 (UniProt Q14562)
inactive: vemurafenib -0.103 | [1] 0.013 | barasertib 0.01 | [2] -0.047 | volasertib -0.022 | [3] 0.042 | [4] -0.024 | [5] 0.028 | saracatinib -0.004 | sotrastaurin 0.033

DNAJC13 (UniProt O75165)
inactive: vemurafenib 0.011 | [1] 0.005 | barasertib 0.052 | [2] 0.037 | volasertib -0.023 | [3] -0.014 | [4] -0.066 | [5] 0.067 | saracatinib -0.023 | sotrastaurin 0.025

DIPK2A (UniProt Q8NDZ4)
inactive: vemurafenib 0.026 | [1] 0.02 | barasertib 0.024 | [2] 0.214 | volasertib -0.023 | [3] 0.002 | [4] 0.001 | [5] -0.08 | saracatinib 0 | sotrastaurin -0.063

DOK1 (UniProt Q99704)
inactive: vemurafenib 0.028 | [1] 0.061 | barasertib -0.027 | [2] -0.113 | volasertib -0.026 | [3] 0.021 | [4] -0.055 | [5] 0.101 | saracatinib 0.024 | sotrastaurin 0.029

DNPH1 (UniProt H0Y8X4)
inactive: vemurafenib -0.049 | [1] 0.009 | barasertib 0 | [2] -0.05 | volasertib 0.013 | [3] 0.022 | [4] -0.041 | [5] 0.058 | saracatinib -0.038 | sotrastaurin 0.004

DHRS2 (UniProt Q13268)
inactive: vemurafenib 0.001 | [1] 0 | barasertib 0.066 | [2] 0.011 | volasertib 0.028 | [3] 0.046 | [4] 0.024 | [5] -0.118 | saracatinib -0.026 | sotrastaurin -0.036

DHCR24 (UniProt Q15392)
inactive: vemurafenib -0.011 | [1] 0.002 | barasertib 0 | [2] 0.104 | volasertib 0.038 | [3] -0.128 | [4] -0.084 | [5] 0.269 | saracatinib 0.002 | sotrastaurin -0.013

DNPEP (UniProt Q9ULA0)
inactive: vemurafenib 0 | [1] 0.005 | barasertib -0.018 | [2] 0.031 | volasertib 0.004 | [3] -0.024 | [4] -0.028 | [5] 0.036 | saracatinib 0.023 | sotrastaurin -0.016

2 entries picked at random from those above:
DHCR24 (UniProt Q15392)
inactive: vemurafenib -0.011 | [1] 0.002 | barasertib 0 | [2] 0.104 | volasertib 0.038 | [3] -0.128 | [4] -0.084 | [5] 0.269 | saracatinib 0.002 | sotrastaurin -0.013

DHRS2 (UniProt Q13268)
inactive: vemurafenib 0.001 | [1] 0 | barasertib 0.066 | [2] 0.011 | volasertib 0.028 | [3] 0.046 | [4] 0.024 | [5] -0.118 | saracatinib -0.026 | sotrastaurin -0.036

Continued:

DOCK11 (UniProt Q5JSL3)
inactive: vemurafenib 0.02 | [1] 0.019 | barasertib 0.048 | [2] -0.013 | volasertib -0.037 | [3] -0.019 | [4] -0.077 | [5] -0.004 | saracatinib -0.008 | sotrastaurin 0.036

DIS3L2 (UniProt Q8IYB7)
inactive: vemurafenib 0.036 | [1] 0.055 | barasertib 0.069 | [2] -0.07 | volasertib -0.018 | [3] 0.046 | [4] -0.011 | [5] 0.013 | saracatinib 0.016 | sotrastaurin 0.09

DIEXF (UniProt Q68CQ4)
inactive: vemurafenib 0.062 | [1] -0.011 | barasertib 0.052 | [2] -0.062 | volasertib -0.047 | [3] 0.015 | [4] 0.014 | [5] 0.003 | saracatinib -0.025 | sotrastaurin -0.07

DNAJA3 (UniProt Q96EY1)
inactive: vemurafenib 0.038 | [1] 0.022 | barasertib -0.082 | [2] -0.023 | volasertib -0.004 | [3] 0.004 | [4] -0.003 | [5] 0.011 | saracatinib 0.041 | sotrastaurin 0.002

DLD (UniProt P09622)
inactive: vemurafenib 0.007 | [1] 0.003 | barasertib -0.032 | [2] 0.032 | volasertib 0.057 | [3] -0.018 | [4] -0.071 | [5] 0.04 | saracatinib 0.009 | sotrastaurin -0.015

DGKZ (UniProt Q13574)
inactive: vemurafenib 0.014 | [1] 0.052 | barasertib -0.024 | [2] -0.083 | volasertib -0.024 | [3] -0.01 | [4] -0.035 | [5] -0.009 | saracatinib -0.016 | sotrastaurin -0.065

DHDDS isoform 2 (UniProt Q86SQ9)
inactive: vemurafenib -0.017 | [1] 0.046 | barasertib -0.046 | [2] -0.046 | volasertib 0.024 | [3] -0.001 | [4] -0.092 | [5] -0.016 | saracatinib -0.011 | sotrastaurin 0.009

DNM1L isoform 2 (UniProt O00429)
inactive: vemurafenib -0.053 | [1] 0.001 | barasertib -0.132 | [2] -0.141 | volasertib -0.146 | [3] -0.012 | [4] -0.044 | [5] -0.06 | saracatinib 0.057 | sotrastaurin 0.086

DHRS7 (UniProt Q9Y394)
inactive: vemurafenib 0.082 | [1] -0.009 | barasertib -0.07 | [2] 0.019 | volasertib 0.021 | [3] -0.012 | [4] -0.135 | [5] 0.096 | saracatinib 0.006 | sotrastaurin 0.013
